In publication doi:10.1101/2023.08.10.552743:
These are yes or no findings as the source states them, for the method shown. Binding seen in cells or lysates may run through a third protein. Some entries that bind do so weakly or less than the wild type.

Sequences of proteins named here, by UniProt entry; tags and fusion partners are left off.
UniProt Q9NV88: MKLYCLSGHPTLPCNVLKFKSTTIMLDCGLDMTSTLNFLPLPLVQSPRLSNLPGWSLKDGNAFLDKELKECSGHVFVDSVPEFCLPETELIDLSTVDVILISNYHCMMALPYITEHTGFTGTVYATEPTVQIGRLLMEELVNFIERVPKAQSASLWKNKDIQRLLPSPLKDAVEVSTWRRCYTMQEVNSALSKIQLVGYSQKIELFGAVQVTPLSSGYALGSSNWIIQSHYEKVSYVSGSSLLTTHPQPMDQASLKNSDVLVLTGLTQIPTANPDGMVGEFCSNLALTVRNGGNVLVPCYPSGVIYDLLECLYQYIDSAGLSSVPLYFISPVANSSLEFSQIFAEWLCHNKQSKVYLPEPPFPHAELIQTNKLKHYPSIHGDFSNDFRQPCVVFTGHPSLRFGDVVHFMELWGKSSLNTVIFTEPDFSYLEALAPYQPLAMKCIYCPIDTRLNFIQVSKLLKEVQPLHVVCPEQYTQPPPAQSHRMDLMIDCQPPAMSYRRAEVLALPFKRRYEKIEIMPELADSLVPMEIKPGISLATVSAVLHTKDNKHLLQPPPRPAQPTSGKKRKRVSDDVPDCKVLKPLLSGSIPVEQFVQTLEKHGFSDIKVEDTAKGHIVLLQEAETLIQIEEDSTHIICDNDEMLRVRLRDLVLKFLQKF
UniProt Q5TA45: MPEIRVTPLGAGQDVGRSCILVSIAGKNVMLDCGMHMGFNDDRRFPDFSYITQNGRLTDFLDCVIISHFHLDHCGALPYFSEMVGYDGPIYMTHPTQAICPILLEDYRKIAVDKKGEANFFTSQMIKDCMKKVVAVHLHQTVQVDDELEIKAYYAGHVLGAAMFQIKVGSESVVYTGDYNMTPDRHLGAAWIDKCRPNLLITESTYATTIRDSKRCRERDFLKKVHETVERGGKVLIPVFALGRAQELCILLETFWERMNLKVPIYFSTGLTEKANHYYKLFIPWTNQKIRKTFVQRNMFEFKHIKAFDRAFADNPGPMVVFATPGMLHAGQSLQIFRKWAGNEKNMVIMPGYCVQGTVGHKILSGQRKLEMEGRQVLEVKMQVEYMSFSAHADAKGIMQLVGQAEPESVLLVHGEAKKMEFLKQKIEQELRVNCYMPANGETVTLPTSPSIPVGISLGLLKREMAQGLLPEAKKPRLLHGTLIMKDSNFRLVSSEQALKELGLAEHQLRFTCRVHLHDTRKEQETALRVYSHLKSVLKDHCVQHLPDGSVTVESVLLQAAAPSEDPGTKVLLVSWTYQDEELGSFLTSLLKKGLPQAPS
UniProt Q9UL03: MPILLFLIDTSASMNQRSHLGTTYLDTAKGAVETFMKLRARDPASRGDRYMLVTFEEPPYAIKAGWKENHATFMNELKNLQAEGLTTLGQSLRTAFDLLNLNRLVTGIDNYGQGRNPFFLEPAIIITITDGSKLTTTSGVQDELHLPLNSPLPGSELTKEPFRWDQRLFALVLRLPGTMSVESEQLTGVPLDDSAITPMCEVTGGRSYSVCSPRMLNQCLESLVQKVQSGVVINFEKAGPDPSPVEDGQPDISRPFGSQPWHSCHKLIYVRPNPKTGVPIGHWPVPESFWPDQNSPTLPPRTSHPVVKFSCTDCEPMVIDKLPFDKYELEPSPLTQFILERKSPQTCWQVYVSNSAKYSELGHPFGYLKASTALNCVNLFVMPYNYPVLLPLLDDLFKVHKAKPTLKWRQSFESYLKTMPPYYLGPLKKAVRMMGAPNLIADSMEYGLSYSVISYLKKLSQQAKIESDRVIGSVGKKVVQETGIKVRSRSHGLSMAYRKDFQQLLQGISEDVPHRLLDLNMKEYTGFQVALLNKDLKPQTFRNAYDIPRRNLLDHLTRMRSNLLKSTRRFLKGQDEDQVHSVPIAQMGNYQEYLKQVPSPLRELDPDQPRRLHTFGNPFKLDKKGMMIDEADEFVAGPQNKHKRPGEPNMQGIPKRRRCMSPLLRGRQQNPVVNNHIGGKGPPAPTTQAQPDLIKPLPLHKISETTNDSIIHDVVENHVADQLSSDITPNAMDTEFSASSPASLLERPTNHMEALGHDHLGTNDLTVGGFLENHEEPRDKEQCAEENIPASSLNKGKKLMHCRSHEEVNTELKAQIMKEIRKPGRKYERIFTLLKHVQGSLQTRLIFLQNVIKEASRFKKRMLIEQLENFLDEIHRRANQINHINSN
UniProt Q96HW7: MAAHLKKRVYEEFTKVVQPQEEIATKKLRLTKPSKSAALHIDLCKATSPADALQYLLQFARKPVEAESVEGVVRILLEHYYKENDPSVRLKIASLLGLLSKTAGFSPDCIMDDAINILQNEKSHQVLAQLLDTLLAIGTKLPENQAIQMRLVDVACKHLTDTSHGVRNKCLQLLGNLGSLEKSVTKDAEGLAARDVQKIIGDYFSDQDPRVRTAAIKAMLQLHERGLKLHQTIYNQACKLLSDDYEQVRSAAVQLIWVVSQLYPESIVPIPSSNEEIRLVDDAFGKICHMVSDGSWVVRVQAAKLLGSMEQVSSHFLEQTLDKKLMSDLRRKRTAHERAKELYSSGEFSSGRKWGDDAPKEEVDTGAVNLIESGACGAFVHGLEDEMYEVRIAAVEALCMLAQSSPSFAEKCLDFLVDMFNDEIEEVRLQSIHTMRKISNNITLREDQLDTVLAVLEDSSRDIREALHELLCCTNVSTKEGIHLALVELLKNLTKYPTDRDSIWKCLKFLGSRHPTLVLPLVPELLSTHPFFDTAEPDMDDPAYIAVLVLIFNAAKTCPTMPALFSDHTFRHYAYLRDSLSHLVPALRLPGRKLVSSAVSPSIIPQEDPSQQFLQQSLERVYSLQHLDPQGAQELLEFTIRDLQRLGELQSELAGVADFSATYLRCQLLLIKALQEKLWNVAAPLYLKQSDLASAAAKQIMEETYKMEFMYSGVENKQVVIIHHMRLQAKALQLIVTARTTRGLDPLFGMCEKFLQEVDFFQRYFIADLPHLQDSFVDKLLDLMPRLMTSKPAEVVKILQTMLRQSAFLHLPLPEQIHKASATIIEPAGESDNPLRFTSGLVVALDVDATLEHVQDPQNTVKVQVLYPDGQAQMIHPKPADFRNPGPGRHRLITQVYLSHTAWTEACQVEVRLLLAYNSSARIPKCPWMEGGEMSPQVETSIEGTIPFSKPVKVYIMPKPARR

B1: BRAT1 (endogenous, NT2) (protein, UniProt Q6PJG6-1 1-821)
chain: MDPECAQLLPALCAVLVDPRQPVADDTCLEKLLDWFKTVTEGESSVVLLQEHPCLVELLSHVLKVQDLSSGVLSFSLRLAGTFAAQENCFQYLQQGELLPGLFGEPGPLGRATWAVPTVRSGWIQGLRSLAQHPSALRFLADHGAVDTIFSLQGDSSLFVASAASQLLVHVLALSMRGGAEGQPCLPGGDWPACAQKIMDHVEESLCSAATPKVTQALNVLTTTFGRCQSPWTEALWVRLSPRVACLLERDPIPAAHSFVDLLLCVARSPVFSSSDGSLWETVARALSCLGPTHMGPLALGILKLEHCPQALRTQAFQVLLQPLACVLKATVQAPGPPGLLDGTADDATTVDTLLASKSSCAGLLCRTLAHLEELQPLPQRPSPWPQASLLGATVTVLRLCDGSAAPASSVGGHLCGTLAGCVRVQRAALDFLGTLSQGTGPQELVTQALAVLLECLESPGSSPTVLKKAFQATLRWLLSSPKTPGCSDLGPLIPQFLRELFPVLQKRLCHPCWEVRDSALEFLTQLSRHWGGQADFRCALLASEVPQLALQLLQDPESYVRASAVTAMGQLSSQGLHAPTSPEHAEARQSLFLELLHILSVDSEGFPRRAVMQVFTEWLRDGHADAAQDTEQFVATVLQAASRDLDWEVRAQGLELALVFLGQTLGPPRTHCPYAVALPEVAPAQPLTEALRALCHVGLFDFAFCALFDCDRPVAQKSCDLLLFLRDKIASYSSLREARGSPNTASAEATLPRWRAGEQAQPPGDQEPEAVLAMLRSLDLEGLRSTLAESSDHVEKSPQSLLQDMLATGGFLQGDEADCY
B2: BRAT1 (endogenous, HEK293T) (protein, UniProt Q6PJG6-1 1-821)
chain: B1 chain

Key:
Experiment in all cases: co-IP
[1] = molecular target: T1, BRAT1 (endogenous, NT2) (human (endogenous in NT2)) (UniProt Q6PJG6)
T1 sequence: B1 chain

[2] = molecular target: INTS9 (endogenous, NT2) (human (endogenous in NT2)) (UniProt Q9NV88)
[3] = molecular target: INTS11 (endogenous, NT2) (human (endogenous in NT2)) (UniProt Q5TA45)
Flag-INTS6 (human) = Flag-INTS6 (human) (UniProt Q9UL03)
Flag-INTS11 (human) = Flag-INTS11 (human) (UniProt Q5TA45)
Flag-INTS4 (human) = Flag-INTS4 (human) (UniProt Q96HW7)

Molecule	binding [1]	binding [2]	further results
INTS4 (endogenous, NT2) (from UniProt Q96HW7 1-963)	no binding	binds	–
INTS11 (endogenous, NT2) (from UniProt Q5TA45 1-600)	binds	–	–
INTS9 (endogenous, NT2) (from UniProt Q9NV88 1-658)	binds	–	–
B1	–	binds	binding [3]: binds
B2	–	–	binding (Flag-INTS6 (human)): no binding; binding (Flag-INTS11 (human)): binds; binding (Flag-INTS4 (human)): no binding
